Laboratory results published in article PMC8325689.
These are yes or no findings as the source states them, for the method shown. In cells and extracts the contact can be indirect. Some entries that bind do so weakly or less than the wild type. For some assays here: Where a sequence is shown, tags or fusion partners need not be part of it. Each block holds one molecule with its values, some of them ahead of it.

Chains of the proteins cited; added tags and fusions are not shown.
UniProt P63208: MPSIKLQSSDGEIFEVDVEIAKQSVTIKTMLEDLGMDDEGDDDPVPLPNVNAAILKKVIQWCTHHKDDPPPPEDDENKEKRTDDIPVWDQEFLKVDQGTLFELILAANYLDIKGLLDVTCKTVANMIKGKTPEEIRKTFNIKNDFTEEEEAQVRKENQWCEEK

How the values were obtained:
[1] = target: T1, heterogeneous nuclear ribonucleoprotein L (hnRNPL), endogenous (human (endogenous in HEK293T, A2780, OVCAR8)) (UniProt P14866); test: co-IP; endogenous hnRNPL immunoprecipitated with anti-hnRNPL antibody from A2780 cell lysate, immunoblot for SKP1 and CUL1
T1 sequence: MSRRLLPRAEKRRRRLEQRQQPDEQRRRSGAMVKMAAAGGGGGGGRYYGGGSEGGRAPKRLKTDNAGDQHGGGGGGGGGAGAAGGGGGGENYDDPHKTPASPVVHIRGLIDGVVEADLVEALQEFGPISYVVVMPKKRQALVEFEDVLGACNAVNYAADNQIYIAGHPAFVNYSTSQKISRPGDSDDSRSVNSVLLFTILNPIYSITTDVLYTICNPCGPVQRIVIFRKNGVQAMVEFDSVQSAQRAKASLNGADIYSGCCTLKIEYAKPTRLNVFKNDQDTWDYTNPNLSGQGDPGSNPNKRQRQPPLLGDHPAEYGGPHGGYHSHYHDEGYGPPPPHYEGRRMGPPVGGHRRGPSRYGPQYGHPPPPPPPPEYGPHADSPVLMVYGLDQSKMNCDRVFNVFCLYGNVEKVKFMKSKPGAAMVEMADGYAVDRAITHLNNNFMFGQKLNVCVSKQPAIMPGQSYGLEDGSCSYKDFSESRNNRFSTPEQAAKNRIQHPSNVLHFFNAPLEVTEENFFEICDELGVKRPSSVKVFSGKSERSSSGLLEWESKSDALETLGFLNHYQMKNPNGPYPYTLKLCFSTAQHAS

[2] = target: T2, FLAG-FBXO16 (full-length) (human (gene amplified from HEK293T cells)) (UniProt Q8IX29); test: co-IP; lysates of HEK293T cells expressing FLAG-FBXO16 (stable or transient) or its deletion mutants, FLAG M2 beads 4 h at 4 °C, IP buffer (150 mM NaCl, 20 mM Tris-HCl pH 8.0, 0.5 mM EDTA, 0.5% NP-40), eluted with 3xFLAG peptide, blot for endogenous hnRNPL
T2 sequence: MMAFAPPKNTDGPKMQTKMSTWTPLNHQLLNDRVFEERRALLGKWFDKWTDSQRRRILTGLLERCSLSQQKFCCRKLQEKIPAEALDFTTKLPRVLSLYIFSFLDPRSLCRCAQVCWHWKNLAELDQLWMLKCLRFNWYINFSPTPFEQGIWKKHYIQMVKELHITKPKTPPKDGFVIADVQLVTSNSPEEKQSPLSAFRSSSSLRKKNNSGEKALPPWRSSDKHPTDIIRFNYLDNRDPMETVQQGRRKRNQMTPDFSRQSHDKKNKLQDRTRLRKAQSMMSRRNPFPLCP

[3] = target: T1, heterogeneous nuclear ribonucleoprotein L (hnRNPL), endogenous (human (endogenous in HEK293T, A2780, OVCAR8)); test: co-IP; endogenous IP with anti-hnRNPL and protein A/G beads overnight at 4 °C from lysates of A2780 and OVCAR8 cells treated with 10 µM MG132 for 4 h, blot with anti-FBXO16
[4] = target: T3, full-length FLAG-hnRNPL (1-583) (human (gene amplified from HEK293T cells)) (UniProt P14866); test: co-IP; lysates of HEK293T cells transiently expressing FLAG-hnRNPL (1-583) or its deletion mutants, FLAG M2 beads, blot with anti-FBXO16 for endogenous FBXO16
T3 sequence: T1 sequence

[5] = target: T4, GST-FBXO16 (human (gene amplified from HEK293T cells)) (UniProt Q8IX29); test: pull-down; GST-FBXO16 immobilized on GST-Sepharose beads, incubated with lysate of 293T cells transfected with HA-hnRNPL, immunoblot; only the target purified
T4 sequence: T2 sequence

binding [1]: binds
Molecule: SKP1, endogenous (from UniProt P63208 1-163)

binding [2]: binds
B1: heterogeneous nuclear ribonucleoprotein L (hnRNPL), endogenous (protein, UniProt P14866 1-589)
chain: T1 sequence

Continued, molecule first:

B2: FBXO16, endogenous (protein, UniProt Q8IX29 1-292)
chain: T2 sequence
binding [3]: binds
binding [4]: binds

B3: HA-hnRNPL (protein, UniProt P14866 1-589)
chain: T1 sequence
binding [5]: binds
